This is one part of the list. Values are worked out from sequencing counts and are noisy.

Here are results for 44 molecules from the supplement of paper PMC11237882.

T1: Homer1 EVH1 domain
T1 chain: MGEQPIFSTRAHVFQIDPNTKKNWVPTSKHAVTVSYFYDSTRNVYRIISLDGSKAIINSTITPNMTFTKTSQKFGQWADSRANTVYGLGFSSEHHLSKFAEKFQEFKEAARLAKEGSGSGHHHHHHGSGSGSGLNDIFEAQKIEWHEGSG

For this assay, the target named is T1, Homer1 EVH1 domain. The experiment in a line: enrichment score (AUC of log2 frequency ratio across FACS sorting rounds) (log2 AUC); higher = stronger enrichment for Homer1 EVH1 binding.
For DEKVSWWESLVLVLMYLIYIVIMKYNACIHQCFERR, the enrichment score came to 0.968.

Turning to FLPLALILFAIVSIELTIRNRDLGGQAGPQRAMRVL, the enrichment score stood at 3.33. Take TFGNTKPLSHFVSEPGPQKMPSMPTTSRQPSLLHYL: the enrichment score is -2.62.

With PWLLPLWCYASGVLLTFAMSCTAHVSSCLSLRLRAT, the enrichment score came out at 1.83. FFDPLYPGTKYELGPALYLGWSASLISILGGLCLCS: the enrichment score was -1.08. In the case of KMHFFNVPEPDGHIISPLLAGFYMFWTLIILLQVLI, the enrichment score was 3.89. For the molecule MIWRSRAGAELFSLMALWEWIALSLHCWVLAVAAVS, the enrichment score stood at 0.535. In the case of MLLFVLTCLLAVFPAISTKSPIFGPEEVNSVEGNSV, the enrichment score is 0.0908. For MAAGPIRVVLVLLGVLSACAASGHGSVAERKAGGEA the value was -1.31. As for SSTTVGFVVPFTIMLTCYFFIAQTIAGHFRKERIEG, the enrichment score was 4.09.

Consider IMGSGILGLSYAMANTGIILFIIMLLAVAILSLYSV, for which the enrichment score is 1.05. For GSQGLGRHLPAERVAEFRRALLHYLDFGQKQAFGRL the value was 3.92; for RRGPRAVTSRGRAPAAQISPAPPAILTPVSRLQSAL, 0.408. With YLLGTSGVLFILTGIFVLIPVSWTANIIIRDFYNPA, the enrichment score was 2.66. For WSYILGWVAVLMTFFAGIFYMCAYRVHECRRLSTPR the value was 1.37; for MASQLTQRGALFLLFFLTPAVTPTWYAGSGYYPDEN, 2.25; for SERKLLSKDDTSPPKDKGTWRKGIPSIMRKTFEKKP, -0.675.

As for PHWGLYIFSLAQLFYTTVLVLCYVIYFTKLLGSPES, the enrichment score was 4.12. DLEKVKQRLIEIANHVDKFYRPLNIRIGVGRRGSVE: the enrichment score was found to be 3.1.

Turning to DPEYWKTILSCIYVFIVFGFTSFIMVIVHERVPDMQ, the enrichment score was 0.996. For GINIMVPSCTILISYVFIVTSILHIKSTQGRSKAFS the value was 2.37. As to PSTQPEEGRAPPPALGGGVWPFLPFPRPPEAPTQFS, the enrichment score is -1.54. Regarding IASLVVWCMAVGISYISVYDHQGIFKRNNSRLMDEI, the enrichment score was determined as 2.36.

For the molecule ITSFSFFIALAIILGISSKYAPDENCPDQNPRFRNW, the enrichment score amounted to 3.27. With HMFVKLKVIAESLSVILKSVLTAFLVLWLPHWGLYI, the enrichment score is -0.881. Under YDKLSILKTLLSLTSFIPFSLFLTSLLFLFLSLVRH stands 1.29; under IKKKANLNALDRYGRTALILAVCCGSASIVSLLLEQ, -0.945. For PLLALGCLAVGIWGLVCCCCGGSGAGGARGAFGYGN, the enrichment score is 3.43.

For the molecule RRGGVTLGHKVLVCGAGAIGVVTLLVAKAMGAAQVV, the enrichment score was 2.05. As to MKAPAVLAPGILVLLFTLVQRSNGECKEALAKSEMN, the enrichment score was found to be 0.397. For MENVTTMNEFLLLGLTGVQELQPFFFGIFLIIYLIN the value was 2.67. Under LGCIALLWVVKSTAASLAFPFLLLLTVPLRHCLLPR stands -0.942; under HLNSDYSYGFAYILAWVAFPLALLSGVIYVILRKRE, 3. Turning to DPAFAMMVCLTLLIALLSINGFAYFIRRRINKIQLI, the enrichment score is 3.02. Under KLWEMLAYVLLPLLYLLVRKHINRAHTALYEYRPIL stands 2.01; under SGGLSQPAGWQSLLSFTILFLAWLAGFSSRLFAVIR, 0.34. Regarding GVLGVFPLLGIIFSYSRIASSIRKMSSSGGKQKALS, the enrichment score was 1.46. QKTVKLMYYLWMFHAVTLFLNIFGCLAWFCVDSARV: the enrichment score worked out at 2.39. For SPALSLLIILYVKLSLFVVILVTTGFVFFQRINHVR the value was 0.102; for HLQVQGGGPQRRTQGLKEKLRPGPLASTTAHSRRLL, -1.89. On to EDVWEPGGQLSAQNLYLVIALACISFLFLGCLLFFV, for which the enrichment score came out at 5.19. For the molecule SDATVTTLGNLVPFTLTLLCFLLLICSLCKHLKKMQ, the enrichment score is 2.77. For MEKINNVTEFIFWGLSQSPEIEKVCFVVFSFFYIII the value was -0.64; for VGLLHMVLLSIPFFSIPVVWTLTNVIHNLATYVFLH, 3.03.
